# Library screen at single concentrations

Protein sequences, listed by entry. Tags and fused reporters are not part of them. Residues count along the entry.
UniProt I6X8D2, whole entry: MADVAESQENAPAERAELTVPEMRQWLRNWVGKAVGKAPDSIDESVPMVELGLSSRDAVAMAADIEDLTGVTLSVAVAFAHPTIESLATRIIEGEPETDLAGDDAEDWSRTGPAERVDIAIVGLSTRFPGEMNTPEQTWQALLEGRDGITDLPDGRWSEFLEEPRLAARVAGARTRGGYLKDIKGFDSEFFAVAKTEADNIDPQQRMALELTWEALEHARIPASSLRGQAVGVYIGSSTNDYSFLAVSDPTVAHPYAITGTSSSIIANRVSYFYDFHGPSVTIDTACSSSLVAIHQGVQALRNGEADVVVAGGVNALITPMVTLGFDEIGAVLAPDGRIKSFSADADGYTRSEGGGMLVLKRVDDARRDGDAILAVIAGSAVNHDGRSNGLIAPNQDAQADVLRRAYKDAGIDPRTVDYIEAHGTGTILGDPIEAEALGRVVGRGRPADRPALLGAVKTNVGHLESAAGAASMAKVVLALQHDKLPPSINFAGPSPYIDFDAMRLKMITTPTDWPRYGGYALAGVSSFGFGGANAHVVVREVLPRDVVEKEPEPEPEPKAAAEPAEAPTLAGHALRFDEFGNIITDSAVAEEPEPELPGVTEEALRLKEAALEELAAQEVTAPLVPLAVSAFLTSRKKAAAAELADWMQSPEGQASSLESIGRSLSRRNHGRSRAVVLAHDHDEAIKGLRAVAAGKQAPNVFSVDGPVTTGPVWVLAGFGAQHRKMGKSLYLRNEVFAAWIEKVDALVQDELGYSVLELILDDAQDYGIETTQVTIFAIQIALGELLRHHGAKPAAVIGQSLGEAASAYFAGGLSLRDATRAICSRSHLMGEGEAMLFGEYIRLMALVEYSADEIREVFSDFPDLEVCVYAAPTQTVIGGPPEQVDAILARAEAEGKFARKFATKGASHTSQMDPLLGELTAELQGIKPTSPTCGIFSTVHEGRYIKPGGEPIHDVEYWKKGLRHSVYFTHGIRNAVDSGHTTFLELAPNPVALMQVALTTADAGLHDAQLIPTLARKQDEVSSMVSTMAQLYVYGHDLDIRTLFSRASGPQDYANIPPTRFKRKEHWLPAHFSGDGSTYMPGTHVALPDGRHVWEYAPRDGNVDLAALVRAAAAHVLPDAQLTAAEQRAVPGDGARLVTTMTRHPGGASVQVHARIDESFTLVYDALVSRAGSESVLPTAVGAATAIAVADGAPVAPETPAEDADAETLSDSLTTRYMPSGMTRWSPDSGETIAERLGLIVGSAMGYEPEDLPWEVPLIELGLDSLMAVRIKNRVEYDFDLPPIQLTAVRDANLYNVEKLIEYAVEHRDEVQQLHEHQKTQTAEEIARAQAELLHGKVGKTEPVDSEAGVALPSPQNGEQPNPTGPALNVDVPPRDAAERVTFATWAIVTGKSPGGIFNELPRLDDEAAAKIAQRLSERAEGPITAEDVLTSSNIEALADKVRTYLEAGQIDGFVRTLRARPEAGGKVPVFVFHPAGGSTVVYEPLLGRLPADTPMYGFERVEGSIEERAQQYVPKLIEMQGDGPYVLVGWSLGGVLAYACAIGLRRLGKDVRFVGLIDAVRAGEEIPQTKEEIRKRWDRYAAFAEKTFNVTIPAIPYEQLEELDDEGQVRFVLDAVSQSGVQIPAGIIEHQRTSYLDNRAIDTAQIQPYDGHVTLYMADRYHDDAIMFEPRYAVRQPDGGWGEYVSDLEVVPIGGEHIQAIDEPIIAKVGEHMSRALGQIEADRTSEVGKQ
UniProt A4I591, 1-473: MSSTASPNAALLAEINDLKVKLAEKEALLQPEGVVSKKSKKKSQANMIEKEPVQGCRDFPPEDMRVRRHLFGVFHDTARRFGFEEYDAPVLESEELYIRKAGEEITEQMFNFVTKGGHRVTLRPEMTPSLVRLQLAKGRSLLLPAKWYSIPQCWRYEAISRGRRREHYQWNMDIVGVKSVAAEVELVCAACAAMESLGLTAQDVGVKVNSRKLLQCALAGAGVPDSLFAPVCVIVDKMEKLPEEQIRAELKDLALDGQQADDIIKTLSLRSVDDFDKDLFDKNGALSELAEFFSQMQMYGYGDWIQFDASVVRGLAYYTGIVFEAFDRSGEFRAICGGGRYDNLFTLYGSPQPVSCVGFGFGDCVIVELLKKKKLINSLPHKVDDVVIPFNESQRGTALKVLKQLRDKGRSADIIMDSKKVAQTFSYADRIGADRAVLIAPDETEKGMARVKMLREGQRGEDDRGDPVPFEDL
UniProt P9WPC5, whole entry: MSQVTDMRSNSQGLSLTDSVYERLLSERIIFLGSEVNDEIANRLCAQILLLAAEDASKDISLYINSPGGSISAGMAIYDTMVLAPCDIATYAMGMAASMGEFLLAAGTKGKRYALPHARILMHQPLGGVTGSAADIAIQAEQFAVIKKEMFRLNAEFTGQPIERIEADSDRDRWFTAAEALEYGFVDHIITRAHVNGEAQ
UniProt P9WPC3, whole entry partner: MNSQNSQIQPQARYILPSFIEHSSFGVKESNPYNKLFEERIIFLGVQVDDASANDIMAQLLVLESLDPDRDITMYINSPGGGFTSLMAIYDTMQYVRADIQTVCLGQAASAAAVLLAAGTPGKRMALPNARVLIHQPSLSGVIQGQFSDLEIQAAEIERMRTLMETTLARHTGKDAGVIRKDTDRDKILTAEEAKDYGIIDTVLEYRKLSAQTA
UniProt P9WNZ1, whole entry: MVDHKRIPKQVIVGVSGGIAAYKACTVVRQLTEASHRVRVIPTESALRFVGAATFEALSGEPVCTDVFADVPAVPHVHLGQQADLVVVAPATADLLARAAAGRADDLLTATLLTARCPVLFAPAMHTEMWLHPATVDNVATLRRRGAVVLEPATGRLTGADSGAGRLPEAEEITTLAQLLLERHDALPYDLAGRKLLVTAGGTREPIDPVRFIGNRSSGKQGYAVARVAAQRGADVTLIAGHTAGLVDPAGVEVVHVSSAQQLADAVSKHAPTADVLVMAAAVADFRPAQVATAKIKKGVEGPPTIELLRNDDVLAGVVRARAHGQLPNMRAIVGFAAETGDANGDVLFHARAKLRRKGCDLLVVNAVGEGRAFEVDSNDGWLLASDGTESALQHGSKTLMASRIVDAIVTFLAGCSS

Each number is a percent effect as filed. How 0% and 100% were set is not recorded. Most values in the screen are low, and negative values occur. Compounds were drawn at random from those tested, without regard to their results. Two or more numbers in one place are separate tests of the same structure; such repeats can differ widely. A dash means the value is not listed here; it may have been measured.

Pks13 thioesterase: 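Enzyme assay of the thioesterase domain of polyketide synthase 13; the read-out is not stated. Target: Polyketide synthase Pks13, Mycobacterium tuberculosis (UniProt I6X8D2). Compounds at 30 µM. Higher reads as stronger inhibition (inferred from which compounds were picked for retests). About 67,000 compounds were tested under these conditions; 0.46% (about 300) showed 50% or more at least once.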
LiHisRS: 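Enzyme assay of histidyl-tRNA synthetase; the read-out is not stated. Target: Histidine-tRNA ligase, Leishmania infantum (UniProt A4I591). Concentration: 30 µM. The record gives no direction; compounds that gave an IC50 in retests scored well above the rest, so higher reads as stronger inhibition. The assay is labelled LdHisRS but filed under L. infantum. About 69,000 compounds were tested under these conditions; 0.6% (about 410) showed 50% or more at least once.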
Leishmania in macrophages: 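Cell assay of Leishmania donovani living inside macrophages; the read-out is not stated. Compounds at 30 µM. Direction is inferred from retests: higher values go with stronger inhibition. About 69,000 compounds were tested under these conditions; 1.5% (about 1,000) showed 50% or more at least once.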
ClpP1P2: 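ClpP1P2, Mycobacterium tuberculosis (UniProt P9WPC5 and UniProt P9WPC3). Protease assay of ClpP1P2, read by the AMC dye that it sets free. Compounds at 50 µM. Higher reads as stronger inhibition, judged from the few compounds that gave an IC50. Most other retested compounds had strongly negative values. Size under these conditions: about 69,000 compounds, about 10 of them at 50% or above in at least one test.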
Toxoplasma: 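Assay of Toxoplasma gondii numbers, read through their beta-galactosidase reporter with a colour substrate. Tested at 10 µM. The record gives no direction; the compounds picked for IC50 retests had high values, so higher reads as fewer parasites. Size under these conditions: about 67,000 compounds, about 260 of them at 50% or above in at least one test.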
CoaBC: 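Coenzyme A biosynthesis protein CoaBC, Mycobacterium tuberculosis (UniProt P9WNZ1). Enzyme assay of CoaBC with a phosphate dye (Biomol Green) read at 650 nm. Compounds at 30 µM. Higher reads as stronger inhibition, judged from the few compounds that gave an IC50. Most strong results did not repeat in a second test. Size under these conditions: about 67,000 compounds, about 40 of them at 50% or above in at least one test.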

structure	Pks13 thioesterase	LiHisRS	Leishmania in macrophages	ClpP1P2	Toxoplasma	CoaBC
O=c1ccc2c([nH]1)CCC(NS(=O)(=O)C1CC1)C2 (stereo not given)	-3.149%	17.31%	11.2%	-1.915%	-4.072%	3.758%
O=C(NCc1nncn1C1CC1)C1(c2ccccc2)CCOCC1	-10.52%	6.25%	4.033%	-0.06989%	-12.48%	0.9615%
COCCN(Cc1cccnc1)c1nc(C)nc2oc(C)nc12	-29.39%	10.26%	-2.266%	-1.117%	7.051%	5.835%
Cc1ccc(N2CCC3(CCC(=O)N3Cc3ccncc3)CC2)nn1	-20.46%	17.82%	-	-1.611%	-	5.817%
[H][C@@]12CS(=O)(=O)C[C@]1([H])N(C(=O)c1cc(C(C)C)on1)CCN2CCOC	-	-	-6.872%	-	0.5816%	-
Cc1ccc(C(=O)Nc2ccc(N3CCC(O)CC3)c(C#N)c2)s1	-16.96%	6.849%	34.44%	-13.32%	-0.3793%	1.282%
CN(C(=O)c1cccc(C#N)c1)c1nnc(C2CCOC2)s1 (stereo not given)	12.16%	11.19%	-1.642%	-8.449%	4.501%	-2.663%
Cc1noc(C)c1CC(=O)N1CCCN(C)c2ccc(Cl)cc21	-6.662%	4.762%	-14.08%	3.5%	-9.427%	0.9709%
CCOC(=O)CNC(=O)NCc1cccn1Cc1ccccc1F	-4.472%	-2.632%	1.108% & 0.5413%	-16.52%	15.26%	-2.532%
NC(=O)c1cc2c(nc1-c1ccoc1)CCC2	0.9656%	29.17%	16.64%	-12.1%	-28.99%	0.3727%
O=C(O)C(F)(F)F.O=S(=O)(NC1CCC12CCN(CC1CCOCC1)CC2)c1ccccc1 (stereo not given)	-	-	17.74%	-	-5.771%	-
CC(C)c1nc2c(n1C)CCN(CC(=O)NCc1ccccn1)C2	-1.337%	-2.857%	-1.528%	-5.002%	-0.5965%	-
Cc1nc(CN2CCO[C@H]3CN(C(=O)c4cscn4)C[C@H]32)cs1	-35.12%	17.54%	-	-13.35%	-	6.754%
O=C(NCCc1cccs1)C1(N2CCCCC2)Cc2ccccc2C1	-31.93%	2.41%	-5.198%	-16.79%	-0.6698%	3.883%
c1cc(CN2C[C@@H]3OCCN(CC4CCCO4)[C@@H]3C2)ccn1 (stereo not given in full)	-3.877%	19.27%	-	11.32%	-	1.42%
O=C(O)[C@@H]1CN(CC(=O)N2CCCCC2)C[C@H]1c1ccc(F)cc1	-0.5506%	24.29%	-5.176%	-4.044%	-5.243%	2.664%
O=S(=O)(c1c(F)cccc1F)N1CCC(Cn2cccn2)CC1	-38.57%	7.692%	-4.586%	13.62%	1.831%	8.824%
CCn1ccnc1CN1CCN(c2cc(C)nc(C3CCCN3)c2)CC1 (stereo not given)	5.734%	8.696%	-	-7.996%	-	4.205%
Cc1ccoc1C(=O)N1CCn2nnc(COc3cccnc3)c2C1.O=C(O)C(F)(F)F	-	-	30.43%	-	-7.353%	-
CN(C)C(=O)COCC1CN(S(C)(=O)=O)Cc2ncn(C)c21.O=C(O)C(F)(F)F (stereo not given)	-	-	2.439%	-	15.52%	-
C[C@H]1CN(Cc2cccc(F)c2)C[C@@]12CCN(CC(=O)N(C)C)C2=O.O=C(O)C(F)(F)F	-	-	1.807%	-	12.54%	-
CN(C)C(CNC(=O)CCNC(=O)OCC(F)(F)F)c1ccsc1 (stereo not given)	-4.838%	22.22%	31.31%	-4.661%	-12.57%	-3.406%
COCCN(C)[C@@H]1c2ccccc2C2(CCNCC2)[C@H]1O	5.147%	0%	-17.37%	-6.933%	0.6734%	-1.895%
CN(C)CC1CSCCCN1C(=O)c1ccc(=O)[nH]c1 (stereo not given)	-13.48%	12.62%	-15.71%	-18%	-6.541%	-2.915%
COCCn1ccnc1CN(Cc1ccccn1)CC(C)C	-21.03%	-19.79%	20.34%	-6.905%	5.13%	3.085%
CC[C@H](Cn1ncc2ccccc2c1=O)NC(=O)c1ccccn1	-0.5227%	4.255%	22.73%	-6.673%	-10.07%	8.466%
CN(C)[C@@H]1CN(Cc2cccnc2)C[C@H]1c1cn(C)c2ccccc12	5.061%	10.07%	-	-8.92%	-	18.66%
CN(Cc1cn(CC2CCNCC2)nn1)CC1CCCCO1 (stereo not given)	-14.17%	6.667%	-23.25%	-9.342%	11.5%	7.118%
OC[C@H]1CCCN1c1nccc(-c2cncnc2C2CCCCC2)n1	8.654%	14.29%	3.314% & 6.608%	-7.518%	29.63%	4.458%
CCOc1ccc(OCc2nc3c(c(=O)[nH]2)CCNC3)cc1	-13.98%	32.65%	15.57%	8.046%	-0.2011%	2.067%
CCN(C(=O)CN(Cc1cccc(O)c1)C1CCC(O)CC1)C1CC1 (stereo not given)	-39.64%	13.68%	22.94%	-3.186%	-7.823%	-2.137%
CCOCC1CCCN(C(=O)NCc2cn3c(C)cccc3n2)C1 (stereo not given)	-5.707%	20.51%	4.028% & -30.14%	3.81%	-2.419%	-3.053%
Cc1csc(-c2cccc(NC(=O)N3CCOCC3)c2)n1	-24.53%	14.29%	24.69%	-0.5056%	1.081%	8.855%
Cc1ncc(-c2nc3cc(S(=O)(=O)N4CCCC4)ccc3n2C)cn1	-4.629%	23.08%	-8.556%	-5.435%	-0.3284%	-6.183%
Cc1cccc(CN2C(=O)C[C@H]3[C@@H]2CCN3Cc2ccc(F)cc2)n1	-13.11%	22.94%	-	-3.413%	-	9.412%
Cc1nc(N2CCCC2)nc2c1CCN(Cc1nccn1C)CC2.O=C(O)C(F)(F)F	-	-	20.32%	-	10.7%	-
COc1cc(N2CCC3(CCCN3Cc3cnn(C)c3)CC2)ncn1	-39.79%	21.37%	-	1.407%	-	13.33%
O=C(NCCc1ccccn1)[C@@]12CCO[C@@H]1CCN(CC1CC1)C2	-25.81%	9.615%	-	-5.925%	-	1.673%
CCc1cccc2cc(CNCCOC)c(=O)[nH]c12	-4.892%	10.07%	-25.42%	12.49%	5.573%	7.895%
O=C1CC(NCc2cnc(N3CCCC3)nc2)CN1c1ccccc1 (stereo not given)	65.66%	25.71%	-	-4.298%	-	7.692%
Cc1cc(-c2cnc(N3CCCC3)nc2-c2ccc(C)s2)on1	4.596%	4.348%	9.543% & 7.471%	-17.48%	8.819%	2.427%
CC(=O)c1nn(-c2cccc(Cl)c2)c(C)c1C(C)=O	2.716%	3.297%	-1.836%	-4.381%	2.276%	2.594%
O=C(NCCOc1ccc(Cl)cn1)Nc1ccccn1	-25.71%	10%	8.776%	-6.174%	-6.991%	5.943%
O=C(NCc1ccccc1CN1CCC(O)CC1)Nc1cccnc1	-9.42%	7.692%	26.58%	-4.787%	-3.231%	-10.87%
Cc1cc2c(cc1CN1CCCCC1CCn1ccnc1C)OCO2 (stereo not given)	-26.39%	12.5%	16.68%	13%	2.151%	4.627%
O=C(CC1CC1)N1CCC2(COCc3cnc(-c4cccnc4)nc32)C1 (stereo not given)	-9.73%	10%	-8.68%	-3.347%	-23.23%	6.42%
CC1CCN(C(=O)c2cnc3cc(C(=O)N(C)C)n(C)c3c2)CC1	11.37%	9.901%	-27.8%	-0.9256%	-0.6184%	1.456%
Nc1nnc(SCC(=O)NCC(O)c2ccccc2)s1 (stereo not given)	-36.75%	12.9%	8.203%	12.45%	1.888%	1.814%
CN1CCC2(CC1)CC(NC(=O)c1csnn1)c1ccccc1O2.O=C(O)C(F)(F)F (stereo not given)	-	-	15.84%	-	10.58%	-
O=C(Nc1cccc(C(F)(F)F)c1)C1CC(=O)N(Cc2ccccn2)C1 (stereo not given)	0.2268%	5.66%	-1.207%	-0.6132%	-1.571%	12.84%
Cc1nnsc1C(=O)NCCn1ccc(-c2ccncc2)n1	28.07%	15.38%	7.331% & -28.77%	-6.286%	-4.705%	-1.781%
O=C1C[C@H]2[C@@H](CCN2C(=O)Cc2cccs2)N1Cc1cccnc1	-14.64%	19.51%	-	2.084%	-	6.771%
CCCN1CCC2(C1)c1ccccc1S(=O)(=O)N2C.O=C(O)C(F)(F)F (stereo not given)	-	-	19.84%	-	-17.63%	-
CN1CCC(c2cncc(Cl)n2)CC1	5.213%	17.02%	28.09%	7.343%	5.845%	0.1227%
O=C(O)CNc1cc(-c2cc(C(=O)NC3CC3)ccn2)c2cc[nH]c2n1	8.71%	11.5%	26.38%	-4.626%	6.498%	-0.6369%

Repeated from the top, 7 entries:

- O=c1ccc2c([nH]1)CCC(NS(=O)(=O)C1CC1)C2 (stereo not given) : Pks13 thioesterase: -3.149%; LiHisRS: 17.31%; Leishmania in macrophages: 11.2%; ClpP1P2: -1.915%; Toxoplasma: -4.072%; CoaBC: 3.758%
- O=C(NCc1nncn1C1CC1)C1(c2ccccc2)CCOCC1 : Pks13 thioesterase: -10.52%; LiHisRS: 6.25%; Leishmania in macrophages: 4.033%; ClpP1P2: -0.06989%; Toxoplasma: -12.48%; CoaBC: 0.9615%
- COCCN(Cc1cccnc1)c1nc(C)nc2oc(C)nc12 : Pks13 thioesterase: -29.39%; LiHisRS: 10.26%; Leishmania in macrophages: -2.266%; ClpP1P2: -1.117%; Toxoplasma: 7.051%; CoaBC: 5.835%
- Cc1ccc(N2CCC3(CCC(=O)N3Cc3ccncc3)CC2)nn1 : Pks13 thioesterase: -20.46%; LiHisRS: 17.82%; ClpP1P2: -1.611%; CoaBC: 5.817%
- [H][C@@]12CS(=O)(=O)C[C@]1([H])N(C(=O)c1cc(C(C)C)on1)CCN2CCOC : Leishmania in macrophages: -6.872%; Toxoplasma: 0.5816%
- Cc1ccc(C(=O)Nc2ccc(N3CCC(O)CC3)c(C#N)c2)s1 : Pks13 thioesterase: -16.96%; LiHisRS: 6.849%; Leishmania in macrophages: 34.44%; ClpP1P2: -13.32%; Toxoplasma: -0.3793%; CoaBC: 1.282%
- CN(C(=O)c1cccc(C#N)c1)c1nnc(C2CCOC2)s1 (stereo not given) : Pks13 thioesterase: 12.16%; LiHisRS: 11.19%; Leishmania in macrophages: -1.642%; ClpP1P2: -8.449%; Toxoplasma: 4.501%; CoaBC: -2.663%

Measurements from “University of Dundee, Small-Polar-MMV Screening Library” (2021), ChEMBL document CHEMBL3988442.